In article PMC10550928:

T1: MeeF-FLAG (B. subtilis) (UniProt O34447)
T1 sequence: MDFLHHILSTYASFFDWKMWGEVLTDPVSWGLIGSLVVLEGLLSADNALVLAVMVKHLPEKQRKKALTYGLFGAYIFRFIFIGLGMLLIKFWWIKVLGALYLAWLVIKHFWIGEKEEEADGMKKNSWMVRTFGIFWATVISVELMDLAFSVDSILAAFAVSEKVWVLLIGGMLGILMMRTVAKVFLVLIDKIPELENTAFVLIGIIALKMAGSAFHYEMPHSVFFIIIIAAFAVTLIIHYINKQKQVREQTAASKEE

T2: MeeY-FLAG (B. subtilis) (UniProt O34997)
T2 sequence: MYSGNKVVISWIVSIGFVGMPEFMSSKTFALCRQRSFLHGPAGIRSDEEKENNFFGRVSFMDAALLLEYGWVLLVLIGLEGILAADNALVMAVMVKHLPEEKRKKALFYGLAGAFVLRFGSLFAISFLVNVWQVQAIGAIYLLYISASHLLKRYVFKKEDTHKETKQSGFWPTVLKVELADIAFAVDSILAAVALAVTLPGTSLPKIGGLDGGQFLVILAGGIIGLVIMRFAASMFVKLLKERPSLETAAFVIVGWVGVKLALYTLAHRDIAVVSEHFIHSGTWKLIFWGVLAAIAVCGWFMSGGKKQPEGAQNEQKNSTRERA

B1: FhuD (protein, UniProt P37580 24-315)
chain: CGNNSESKGSASDSKGAETFTYKAENGNVKIPKHPKRVVVMADGYYGYFKTLGINVVGAPENVFKNPYYKGKTNGVENIGDGTSVEKVIDLNPDLIIVWTTQGADIKKLEKIAPTVAVKYDKLDNIEQLKEFAKMTGTEDKAEKWLAKWDKKVAAAKTKIKKAVGDKTISIMQTNGKDIYVFGKDFGRGGSIIYKDLGLQATKLTKEKAIDQGPGYTSISLEKLPDFAGDYIFAGPWQSGGDDGGVFESSIWKNLNAVKNGHVYKMDPIGFYFTDPISLEGQLEFITESLTK
B2: MsmX (protein, UniProt P94360 1-365)
chain: MAELRMEHIYKFYDQKEPAVDDFNLHIADKEFIVFVGPSGCGKSTTLRMVAGLEEISKGDFYIEGKRVNDVAPKDRDIAMVFQNYALYPHMTVYDNIAFGLKLRKMPKPEIKKRVEEAAKILGLEEYLHRKPKALSGGQRQRVALGRAIVRDAKVFLMDEPLSNLDAKLRVQMRAEIIKLHQRLQTTTIYVTHDQTEALTMATRIVVMKDGKIQQIGTPKDVYEFPENVFVGGFIGSPAMNFFKGKLTDGLIKIGSAALTVPEGKMKVLREKGYIGKEVIFGIRPEDIHDELIVVESYKNSSIKAKINVAELLGSEIMIYSQIDNQDFIARIDARLDIQSGDELTVAFDMNKGHFFDSETEVRIR
B3: HtpX (protein, UniProt O31657 1-298)
chain: MAKRIFLFILTNILVLTTIGIVLSVLSSVTGVGTYFTADGGIDPMALLVFSLVVGFVGSFTSLAISRWMAKTMMGVRVLNPKKHSLSYEEQQLVDRVHRLSRSAGLTKMPEVGIYRSPEVNAFATGPSKRRSLVAVSSGLLEQMDDAAVEGVLAHEVAHITNGDMVTMTLLQGIVNTFVVFLSRIAAWIASRFVKEDLAPIVHFIAMIIFQIVFSILGSLVVFAYSRHREFHADRGGADLAGKDKMIHALRTLKSYSSRILEDDQTAVQTLKINGKKRSSLFSTHPDLDERIRRLEAK
B4: OppB (protein, UniProt P24138 1-311)
chain: MLKYIGRRLVYMIITLFVIVTVTFFLMQAAPGGPFSGEKKLPPEIEANLNAHYGLDKPLFVQYVSYLKSVAMWDFGPSFKYKGQSVNDLISSGFPVSFTLGAEAILLALALGVLFGVIAALYHNKWQDYTVAILTIFGISVPSFIMAAVLQYVFSMKLGLFPVAGWDSWAYTFLPSIALASMPMAFIARLSRSSMIEVLNSDYIRTAKAKGLSRPAVTVRHAIRNALLPVVTYMGPMAAQVLTGSFIIETIFGIPGLGAHFVNSITNRDYTVIMGVTVFFSVILLLCVLIVDVLYGIIDPRIKLSKAKKGA
B5: FloT (protein, UniProt O32076 1-509)
chain: MTMPIIMIIGVVFFLLIALIAVFITKYRTAGPDEALIVTGSYLGNKNVHVDEGGNRIKIVRGGGTFVLPVFQQAEPLSLLSSKLDVSTPEVYTEQGVPVMADGTAIIKIGGSIGEIATAAEQFLGKSKDDREQEAREVLEGHLRSILGSMTVEEIYKNREKFSQEVQRVASQDLAKMGLVIVSFTIKDVRDKNGYLESLGKPRIAQVKRDADIATAEADKETRIKRAEADKDAKKSELERATEIAEAEKINQLKMAEFRREQDTAKANADQAYDLETARARQQVTEQEMQVKIIERQKQIELEEKEILRRERQYDSEVKKKADADRYSVEQSAAAEKAKQLAEADAKKYSIEAMAKAEAEKVRIDGLAKAEAEKAKGETEAEVIRLKGLAEAEAKEKIAAAFEQYGQAAIFDMIVKMLPEYAKQAAAPLSNIDKITVVDTGGSGESSGANKVTSYATNLMSSLQESLKASSGIDVKEMLENFSGKGNVKQSINELTNEIKEAKTIQKSE
B6: GlcD (protein, UniProt P94535 1-470)
chain: MITKDVKEQLIQVSGPENFDDSNAGRLVYSYDATPQYQSMPDAVIAPRNTDEISRILTICSEHRVPIVPRGSGTNLCGGTCPTEGGLVLLFKHMNQILEIDEENLTATVQPGVITLDMIRAVESKGLFYPPDPSSMKISTIGGNINENSGGLRGLKYGVTRDYVIGLEVVLANGDIIRTGGKLAKDVAGYDLTRLFVGSEGTLGIVTEAIVKLVPKPETKKTLLALYENIDAAAQTVSDIIAAKIIPATLEFLDQPTLLVIEDYAKIGLPTSAKAVLLIEQDGPFETVERDMEKIEAICKKGDAVSVQTAQTEEEAFALTEARRSALSALARLKPTTILEDATVPRSEIANMVKAINDIAAKYDISICTFGHAGDGNLHPTCTTDIRNKDEMERVEQAFAEIFEKAIELGGTITGEHGVGEMKAPYLEMKLKKEGIDAMKALKAAFDPRNILNPGKMFAKDARKRVVAER
B7: QoxB (protein, UniProt P34956 1-649)
chain: MKFKWDEFFVTGDPLILGAQVSIALSTIAIIFVLTYFKKWKWLWSEWITTVDHKKLGIMYIISAVIMLFRGGVDGLMMRAQLALPNNSFLDSNHYNEIFTTHGTIMIIFMAMPFLIGLINVVVPLQIGARDVAFPYLNNLSFWTFFVGAMLFNISFVIGGSPNAGWTSYMPLASNDMSPGPGENYYLLGLQIAGIGTLMTGINFMVTILKMRTKGMTLMRMPMFTWTTLITMVIIVFAFPVLTVALALLSFDRLFGAHFFTLEAGGMPMLWANLFWIWGHPEVYIVILPAFGIFSEIISSFARKQLFGYKAMVGSIIAISVLSFLVWTHHFFTMGNSASVNSFFSITTMAISIPTGVKIFNWLFTMYKGRISFTTPMLWALAFIPNFVIGGVTGVMLAMAAADYQYHNTYFLVSHFHYVLIAGTVFACFAGFIFWYPKMFGHKLNERIGKWFFWIFMIGFNICFFPQYFLGLQGMPRRIYTYGPNDGWTTLNFISTVGAFMMGVGFLILCYNIYYSFRYSTREISGDSWGVGRTLDWATSSAIPPHYNFAVLPEVKSQDAFLHMKEEKTELYPESKFKKIHMPSNSGRPFFMSVAFGLAGFGLVFEWYWMGVVGLIGVLLCMVLRSFEYDNGYYISVDEIKETERKISE
B8: FtsA (protein, UniProt P28264 1-440)
chain: MNNNELYVSLDIGTSNTKVIVGEMTDDSLNIIGVGNVPSEGLKKGSIVDIDETVHSIRKAFDQAERMVGFPLRKAIVGVNGNYINIQDTNGVVAVSSENKEIQVEDVRRVMEAAQVVSVPHEQLIVDVIPKQFIVDGRDEITDPKKMLGVRLEVEGTLITGSKTILHNLLRCVERAGIEITDICLQPLAAGSAALSKDEKNLGVALIDIGGGSTTIAVFQNGHLTSTRVIPLGGENITKDISIGLRTSTEEAERVKKQLGHAYYDEASEDEIFEVTVIGTNQKQTFTQQEAANIIEARVEEILEIVSEELRSMGITDLPGGFVLTGGQAAMPGVMSLAQDVLQNNVRVASPNYIGVRDPQYMTGVGLIQFACRNARIQGRKIGFKMPEEAIQEIAVSSSEEQEQHHHQNEVQQRPKGKQKTQAEHNKQSKMKKLLSMFWE
B9: NupN (protein, UniProt O05252 23-359)
chain: CGNSEKSSGSGEGKNKFSVAMVTDVGGVDDKSFNQSAWEGIQAFGKENGLKKGKNGYDYLQSKSDADYTTNLNKLARENFDLIYGVGYLMEDSISEIADQRKNTNFAIIDAVVDKDNVASITFKEQEGSFLVGVAAALSSKSGKIGFVGGMESELIKKFEVGFRAGVQAVNPKAVVEVKYAGGFDKADVGKATAESMYKSGVDVIYHSAGATGTGVFTEAKNLKKEDPKRDVWVIGVDKDQYAEGQVEGTDDNVTLTSMVKKVDTVVEDVTKKASDGKFPGGETLTYGLDQDGVGISPSKQNLSDDVIKAVDKWKKKIIDGLEIPATEKELKTFKAE
B10: SecY (protein, UniProt P16336 1-431)
chain: MFKTISNFMRVSDIRNKIIFTLLMLIVFRIGAFIPVPYVNAEALQAQSQMGVFDLLNTFGGGALYQFSIFAMGITPYITASIIIQLLQMDVVPKFTEWSKQGEVGRRKLAQFTRYFTIVLGFIQALGMSYGFNNLANGMLIEKSGVSTYLIIALVLTGGTAFLMWLGEQITSHGVGNGISIIIFAGIVSSIPKTIGQIYETQFVGSNDQLFIHIVKVALLVIAILAVIVGVIFIQQAVRKIAIQYAKGTGRSPAGGGQSTHLPLKVNPAGVIPVIFAVAFLITPRTIASFFGTNDVTKWIQNNFDNTHPVGMAIYVALIIAFTYFYAFVQVNPEQMADNLKKQGGYIPGVRPGKMTQDRITSILYRLTFVGSIFLAVISILPIFFIQFAGLPQSAQIGGTSLLIVVGVALETMKQLESQLVKRNYRGFMKN
B11: YrbF (protein, UniProt O32052 1-89)
chain: MMTGTLGTLVPIILMFAVLYFLLIRPQQKQQKAVRQMQEELKKGDSVVTIGGLHGTVDSIDESKVVIKTGDNTRLTFDRRAIREVSAAE
B12: QoxA (protein, UniProt P34957 26-321)
chain: CSNASVLDPKGPVAEQQSDLILLSIGFMLFIVGVVFVLFTIILVKYRDRKGKDNGSYNPEIHGNTFLEVVWTVIPILIVIALSVPTVQTIYSLEKAPEATKDKEPLVVYATSVDWKWVFSYPEQDIETVNYLNIPVDRPILFKISSADSMASLWIPQLGGQKYAMAGMLMDQYLQADKVGTYEGRNANFTGEHFADQEFDVNAVTEKDFNSWVKKTQNEAPKLTKEKYDELMLPENVDELTFSSTHLKYVDHGQDAEYAMEARKRLGYQAVSPHSKTDPFENVKKNEFKKSDDTEE
B13: AtpF (protein, UniProt P37814 1-170)
chain: MSQLPLELGLSFNGGDILFQLLAMLILLALLKKYALGPLLNIMKQREDHIAGEITSAEEKNKEAQQLIEEQRVLLKEARQESQTLIENAKKLGEKQKEEIIQAARAESERLKEAARTEIVKEKEQAVSALREQVASLSVMIASKVIEKELDEQAQEKLIQDYLKEVGESR

Target: T1, MeeF-FLAG (B. subtilis)
Assay: affinity purification with mass spectrometry; anti-FLAG M2 magnetic beads on lysates (1% Triton X-100) of B. subtilis grown overnight in LB with 50 uM Mn; 30 °C for 3 h; washed with 1X PBS; eluted by heating at 95 °C in 2X Laemmli sample buffer; LC-MS/MS; membrane proteins found in the sample but not in the untagged WT controls

Row | binding | Binder
1 | binds | B1
2 | binds | B2
3 | binds | B3
4 | binds | B4
5 | binds | B5
6 | binds | B6
7 | binds | B7
8 | binds | B8
9 | binds | B9
10 | binds | B10
11 | binds | B11

Target: T2, MeeY-FLAG (B. subtilis)
Assay: as above

Row | binding | Binder
12 | binds | B12
13 | binds | B13

These are yes or no findings as the source states them, for the method shown. Binding seen in cells or lysates may run through a third protein. These calls come from enrichment with a bait or labelling near it, and not all partners need be listed. Sequences can lack the tags named with a protein.
